Assay results as given in the supplement of paper PMC10849652.
The list shows a part of the results.

Protein sequences, listed by entry. Tags and fused reporters are not part of them. Lines headed by an entry give the natural chain unless they say otherwise; changes in a name come on top.
UniProt Q9Y6E2: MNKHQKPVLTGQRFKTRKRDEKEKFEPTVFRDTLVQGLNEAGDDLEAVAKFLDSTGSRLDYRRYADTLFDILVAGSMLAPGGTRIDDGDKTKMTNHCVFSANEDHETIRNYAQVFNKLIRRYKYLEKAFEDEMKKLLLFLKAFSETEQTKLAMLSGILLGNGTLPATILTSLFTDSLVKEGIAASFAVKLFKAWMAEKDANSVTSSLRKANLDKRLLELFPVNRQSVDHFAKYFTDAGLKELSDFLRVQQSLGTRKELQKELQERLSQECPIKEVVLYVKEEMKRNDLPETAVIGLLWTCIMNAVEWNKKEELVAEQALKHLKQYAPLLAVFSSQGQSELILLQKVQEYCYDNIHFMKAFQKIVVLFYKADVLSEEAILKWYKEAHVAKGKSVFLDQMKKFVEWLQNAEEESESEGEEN
UniProt Q13901: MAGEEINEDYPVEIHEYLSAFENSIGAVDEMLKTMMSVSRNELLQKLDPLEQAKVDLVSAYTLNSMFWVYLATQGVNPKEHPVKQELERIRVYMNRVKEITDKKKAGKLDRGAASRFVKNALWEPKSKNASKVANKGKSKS
UniProt Q96LT7: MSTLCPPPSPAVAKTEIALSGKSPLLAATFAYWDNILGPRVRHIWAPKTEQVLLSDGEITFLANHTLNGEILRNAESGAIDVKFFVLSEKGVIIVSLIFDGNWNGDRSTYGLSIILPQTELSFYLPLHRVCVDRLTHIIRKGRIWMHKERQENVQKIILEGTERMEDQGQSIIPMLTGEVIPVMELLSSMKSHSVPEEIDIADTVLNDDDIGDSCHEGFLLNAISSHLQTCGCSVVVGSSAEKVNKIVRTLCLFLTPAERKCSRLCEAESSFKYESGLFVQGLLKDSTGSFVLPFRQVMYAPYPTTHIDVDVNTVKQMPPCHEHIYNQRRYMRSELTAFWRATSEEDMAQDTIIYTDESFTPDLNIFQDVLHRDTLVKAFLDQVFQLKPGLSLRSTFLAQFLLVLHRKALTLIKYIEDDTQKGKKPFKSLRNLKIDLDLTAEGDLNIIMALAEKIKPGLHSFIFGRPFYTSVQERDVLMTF
UniProt Q3KRA6: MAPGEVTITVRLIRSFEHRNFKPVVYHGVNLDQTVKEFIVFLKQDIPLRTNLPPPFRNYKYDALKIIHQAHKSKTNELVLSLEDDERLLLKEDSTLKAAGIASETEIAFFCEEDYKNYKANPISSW
UniProt Q7Z6I8: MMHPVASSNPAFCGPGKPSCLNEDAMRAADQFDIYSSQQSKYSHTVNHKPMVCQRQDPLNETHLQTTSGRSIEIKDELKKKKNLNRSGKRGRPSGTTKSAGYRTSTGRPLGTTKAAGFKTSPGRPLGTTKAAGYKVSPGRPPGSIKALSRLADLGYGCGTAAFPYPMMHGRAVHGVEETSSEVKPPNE
UniProt P27482, whole entry, looked up: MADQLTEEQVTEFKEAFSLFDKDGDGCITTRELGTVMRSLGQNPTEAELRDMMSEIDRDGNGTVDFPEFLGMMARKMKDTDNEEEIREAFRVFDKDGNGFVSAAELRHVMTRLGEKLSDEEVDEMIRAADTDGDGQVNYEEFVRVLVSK
UniProt Q5SQH8: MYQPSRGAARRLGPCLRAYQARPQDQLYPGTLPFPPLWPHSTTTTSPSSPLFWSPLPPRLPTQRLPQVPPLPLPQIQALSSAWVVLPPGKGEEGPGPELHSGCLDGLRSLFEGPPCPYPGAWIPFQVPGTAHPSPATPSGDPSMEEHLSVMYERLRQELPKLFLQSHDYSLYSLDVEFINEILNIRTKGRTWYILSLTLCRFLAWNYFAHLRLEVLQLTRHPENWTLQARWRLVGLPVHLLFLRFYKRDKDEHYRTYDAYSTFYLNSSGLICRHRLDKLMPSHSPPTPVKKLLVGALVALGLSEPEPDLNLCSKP
UniProt Q14012: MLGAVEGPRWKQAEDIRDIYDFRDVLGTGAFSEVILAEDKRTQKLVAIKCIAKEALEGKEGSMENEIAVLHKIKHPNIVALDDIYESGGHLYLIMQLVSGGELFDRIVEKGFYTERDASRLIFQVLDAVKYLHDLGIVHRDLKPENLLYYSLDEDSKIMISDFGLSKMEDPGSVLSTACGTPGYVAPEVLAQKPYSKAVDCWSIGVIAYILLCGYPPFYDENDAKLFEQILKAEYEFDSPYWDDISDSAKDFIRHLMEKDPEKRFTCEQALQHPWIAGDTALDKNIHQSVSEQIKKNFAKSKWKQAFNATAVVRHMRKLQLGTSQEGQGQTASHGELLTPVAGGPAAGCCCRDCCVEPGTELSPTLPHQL
UniProt Q9Y297: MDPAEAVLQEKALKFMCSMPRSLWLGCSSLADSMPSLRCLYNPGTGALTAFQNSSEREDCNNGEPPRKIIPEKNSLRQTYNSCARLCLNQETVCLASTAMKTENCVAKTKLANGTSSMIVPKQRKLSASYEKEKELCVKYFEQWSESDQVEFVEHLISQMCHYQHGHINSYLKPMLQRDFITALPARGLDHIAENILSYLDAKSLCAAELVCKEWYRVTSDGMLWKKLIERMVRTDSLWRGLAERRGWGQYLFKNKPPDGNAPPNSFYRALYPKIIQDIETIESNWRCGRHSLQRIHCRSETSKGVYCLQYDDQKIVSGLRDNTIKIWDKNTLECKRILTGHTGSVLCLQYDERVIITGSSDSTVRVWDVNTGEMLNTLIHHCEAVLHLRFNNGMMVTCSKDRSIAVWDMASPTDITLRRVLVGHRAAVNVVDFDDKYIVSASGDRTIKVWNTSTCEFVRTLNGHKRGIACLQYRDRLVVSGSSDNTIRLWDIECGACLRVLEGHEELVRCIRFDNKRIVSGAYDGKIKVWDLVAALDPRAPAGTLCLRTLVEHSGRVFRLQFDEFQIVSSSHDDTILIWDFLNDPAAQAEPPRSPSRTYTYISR
UniProt Q86VG3: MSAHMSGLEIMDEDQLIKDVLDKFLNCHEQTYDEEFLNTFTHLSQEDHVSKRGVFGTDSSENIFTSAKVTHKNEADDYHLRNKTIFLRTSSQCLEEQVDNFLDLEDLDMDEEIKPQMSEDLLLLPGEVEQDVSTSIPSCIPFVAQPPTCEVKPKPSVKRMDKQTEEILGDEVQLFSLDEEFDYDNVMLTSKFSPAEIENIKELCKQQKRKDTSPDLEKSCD
UniProt Q6P5X5: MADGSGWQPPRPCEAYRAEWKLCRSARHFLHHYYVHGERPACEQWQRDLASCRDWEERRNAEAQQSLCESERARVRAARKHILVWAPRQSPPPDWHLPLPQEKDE
UniProt Q9BRD0: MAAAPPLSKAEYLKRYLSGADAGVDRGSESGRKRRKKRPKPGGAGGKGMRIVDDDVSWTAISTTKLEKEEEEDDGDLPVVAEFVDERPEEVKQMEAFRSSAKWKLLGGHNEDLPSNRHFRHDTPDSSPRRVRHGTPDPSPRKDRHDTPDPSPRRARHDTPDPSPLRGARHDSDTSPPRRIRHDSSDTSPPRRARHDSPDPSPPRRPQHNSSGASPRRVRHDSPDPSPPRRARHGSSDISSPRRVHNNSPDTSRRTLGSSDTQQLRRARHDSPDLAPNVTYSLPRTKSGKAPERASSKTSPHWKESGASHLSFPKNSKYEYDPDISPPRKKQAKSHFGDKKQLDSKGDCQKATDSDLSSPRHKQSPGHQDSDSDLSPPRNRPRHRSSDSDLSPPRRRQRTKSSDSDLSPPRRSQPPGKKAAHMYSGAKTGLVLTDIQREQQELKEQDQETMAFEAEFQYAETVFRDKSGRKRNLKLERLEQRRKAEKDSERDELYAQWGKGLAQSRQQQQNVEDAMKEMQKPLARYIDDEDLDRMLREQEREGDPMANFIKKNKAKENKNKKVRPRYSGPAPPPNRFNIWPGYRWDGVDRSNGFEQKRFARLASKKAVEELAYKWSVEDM
UniProt Q96GV9: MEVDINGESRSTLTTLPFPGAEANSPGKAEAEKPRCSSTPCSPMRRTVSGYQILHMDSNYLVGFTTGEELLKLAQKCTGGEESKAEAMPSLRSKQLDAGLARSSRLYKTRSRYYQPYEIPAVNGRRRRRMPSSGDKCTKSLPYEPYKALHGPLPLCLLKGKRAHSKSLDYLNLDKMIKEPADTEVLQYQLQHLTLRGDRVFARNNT
UniProt Q9H9S4: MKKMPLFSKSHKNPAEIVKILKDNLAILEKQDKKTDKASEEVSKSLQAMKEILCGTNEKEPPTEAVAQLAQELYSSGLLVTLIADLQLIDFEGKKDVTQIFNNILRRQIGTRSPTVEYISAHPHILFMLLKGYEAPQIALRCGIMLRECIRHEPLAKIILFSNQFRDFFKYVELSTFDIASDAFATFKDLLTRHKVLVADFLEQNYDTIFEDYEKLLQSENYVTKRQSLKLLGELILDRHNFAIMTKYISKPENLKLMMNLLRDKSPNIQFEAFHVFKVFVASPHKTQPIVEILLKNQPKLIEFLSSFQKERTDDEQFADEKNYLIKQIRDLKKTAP
UniProt P0DMB2: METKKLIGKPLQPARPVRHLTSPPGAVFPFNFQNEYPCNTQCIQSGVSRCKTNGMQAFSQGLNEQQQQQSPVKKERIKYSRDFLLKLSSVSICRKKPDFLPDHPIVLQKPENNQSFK
UniProt Q9H3J6: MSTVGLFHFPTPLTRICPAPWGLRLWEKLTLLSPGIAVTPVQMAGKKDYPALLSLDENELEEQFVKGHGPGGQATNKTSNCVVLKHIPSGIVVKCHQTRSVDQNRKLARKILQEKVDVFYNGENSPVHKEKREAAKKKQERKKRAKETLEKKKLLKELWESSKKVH
UniProt Q9NSK7: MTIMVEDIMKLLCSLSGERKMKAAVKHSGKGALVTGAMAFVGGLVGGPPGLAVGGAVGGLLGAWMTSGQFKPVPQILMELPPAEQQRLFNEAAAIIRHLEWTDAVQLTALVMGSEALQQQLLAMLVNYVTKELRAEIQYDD
UniProt O14981: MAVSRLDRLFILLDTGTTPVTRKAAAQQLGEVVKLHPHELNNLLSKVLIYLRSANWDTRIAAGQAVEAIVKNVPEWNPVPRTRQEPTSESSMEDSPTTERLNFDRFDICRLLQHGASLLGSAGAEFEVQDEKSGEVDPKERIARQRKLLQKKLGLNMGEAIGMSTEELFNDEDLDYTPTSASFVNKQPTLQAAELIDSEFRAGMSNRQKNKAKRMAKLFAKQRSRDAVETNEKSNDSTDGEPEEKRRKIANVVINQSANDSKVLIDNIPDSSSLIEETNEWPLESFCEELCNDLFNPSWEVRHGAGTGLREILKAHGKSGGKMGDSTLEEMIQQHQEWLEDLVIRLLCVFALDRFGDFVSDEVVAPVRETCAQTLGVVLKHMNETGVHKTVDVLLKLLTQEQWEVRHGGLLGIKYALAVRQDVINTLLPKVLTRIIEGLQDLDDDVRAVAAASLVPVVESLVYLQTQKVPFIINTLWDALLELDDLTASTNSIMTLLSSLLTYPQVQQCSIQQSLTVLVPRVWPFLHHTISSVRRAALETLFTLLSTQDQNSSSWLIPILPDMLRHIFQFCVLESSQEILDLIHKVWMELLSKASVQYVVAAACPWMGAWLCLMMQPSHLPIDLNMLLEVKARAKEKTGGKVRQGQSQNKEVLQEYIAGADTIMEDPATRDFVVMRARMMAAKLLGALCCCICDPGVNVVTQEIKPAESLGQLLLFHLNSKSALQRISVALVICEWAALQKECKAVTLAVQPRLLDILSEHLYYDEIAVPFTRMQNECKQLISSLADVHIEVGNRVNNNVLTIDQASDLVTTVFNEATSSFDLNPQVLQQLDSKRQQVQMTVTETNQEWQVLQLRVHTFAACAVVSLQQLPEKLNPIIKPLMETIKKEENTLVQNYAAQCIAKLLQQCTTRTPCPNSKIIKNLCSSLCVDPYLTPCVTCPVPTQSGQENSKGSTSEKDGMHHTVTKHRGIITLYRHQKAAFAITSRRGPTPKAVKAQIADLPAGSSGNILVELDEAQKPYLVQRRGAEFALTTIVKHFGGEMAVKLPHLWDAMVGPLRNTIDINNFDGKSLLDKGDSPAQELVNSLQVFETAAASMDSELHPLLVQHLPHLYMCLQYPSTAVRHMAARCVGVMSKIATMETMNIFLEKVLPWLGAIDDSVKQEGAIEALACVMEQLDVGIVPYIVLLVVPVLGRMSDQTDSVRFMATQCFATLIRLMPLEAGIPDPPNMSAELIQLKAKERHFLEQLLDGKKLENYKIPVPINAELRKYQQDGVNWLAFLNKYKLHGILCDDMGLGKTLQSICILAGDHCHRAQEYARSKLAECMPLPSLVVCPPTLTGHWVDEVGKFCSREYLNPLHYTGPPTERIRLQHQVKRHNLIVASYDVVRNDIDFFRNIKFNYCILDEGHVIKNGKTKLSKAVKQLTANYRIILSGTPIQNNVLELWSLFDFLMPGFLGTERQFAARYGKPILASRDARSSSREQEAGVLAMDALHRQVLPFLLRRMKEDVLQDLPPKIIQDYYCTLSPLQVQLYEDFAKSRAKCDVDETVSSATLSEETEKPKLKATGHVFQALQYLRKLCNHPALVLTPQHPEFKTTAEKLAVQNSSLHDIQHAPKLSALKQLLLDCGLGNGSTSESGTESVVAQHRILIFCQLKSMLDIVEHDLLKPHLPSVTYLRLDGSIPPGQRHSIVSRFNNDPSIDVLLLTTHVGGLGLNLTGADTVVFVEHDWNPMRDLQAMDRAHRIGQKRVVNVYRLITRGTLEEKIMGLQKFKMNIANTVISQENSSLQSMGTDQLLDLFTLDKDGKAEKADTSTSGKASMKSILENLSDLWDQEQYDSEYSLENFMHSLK

How the values were obtained:
Assay in all cases: log2 fold change, soluble protein after heating vs DMSO (PISA); higher = thermal stabilisation; K562 cells, 10 uM, 30 min; active = over 0.2 and 3.5 SD of the protein, either way, in both replicates (recomputed)
[1] = compound: CC[C@@H]1C(=O)N(C)c2cnc(Nc3ccc(C(=O)NC4CCN(C)CC4)cc3OC)nc2N1C1CCCC1
In short: (§1)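 K562 cells at 2×10^6 cells/mL were treated for 30 min with 10 μM compound, and aliquots were heated for 3 min over 48°C-58°C before pooling. Extraction used PBS with 0.5% NP-40 at 4°C, and soluble protein was the supernatant after 21,000xg for 90 min, measured by TMTpro 16plex LC-MS/MS with channel sums equalised. Thermal stability values, relative to control samples and from duplicates, are log2 fold changes.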

[2] = compound: CC[C@@H]1C(=O)N(C)c2cnc(Nc3ccc(C(=O)N[C@H]4CC[C@H](N5CCN(CC6CC6)CC5)CC4)cc3OC)nc2N1C(C)C [volasertib]
In short: as §1

[3] = compound: CC[C@H](C)N1C=C(C2=C(C=C(C=C21)C3=CN=C(C=C3)N4CCNCC4)C(=O)NCC5=C(C=C(NC5=O)C)C)C
In short: as §1

[4] = compound: CC[C@H](C)[C@@H](C(=O)N[C@@H]([C@@H](C)O)C(=O)N[C@@H](CC(C)C)C(=O)[C@]1(CO1)C)NC(=O)[C@H]([C@@H](C)CC)N(C)C(=O)C [epoxomicin]
In short: as §1

[5] = compound: CCn1cc(-c2ccnc3[nH]c(-c4cccc(CN(C)C)c4)cc23)c(-c2ccc(NC(=O)N(C)C)cc2)n1
In short: as §1

[6] = compound: CN(C)CC(=O)Nc1ccc2[nH]c(=O)c3ccccc3c2c1
In short: as §1

[7] = compound: CN1C2=C(C3=C1C(=O)N(N=C3)CC4=CC(=CC=C4)N)SC(=C2)S(=O)C
In short: as §1

[8] = compound: CN1CCC(CNc2ccc3ncc(-c4cccc(OC(F)(F)F)c4)n3n2)CC1
In short: as §1

[9] = compound: CCn1c(C(=O)N(C2CC2)C2CC2)cc2c3c(ncn3C)c(Nc3cc(C)n(C)n3)nc21
In short: as §1

[10] = compound: CN(CCOC1=CC=C(C=C1)C[C@H]2C(=O)NC(=O)S2)C3=CC=CC=N3 (racemic) [rosiglitazone]
In short: as §1

Measured: log2 fold change

BTBD6 (UniProt Q96KE9)
inactive: [1] 0.017 | [2] 0.001 | [3] -0.033 | [4] -0.059 | [5] -0.356 | [6] 0.066 | [7] -0.112 | [8] -0.021

C20orf27 isoform 2 (UniProt Q9GZN8)
inactive: [1] 0.018 | [2] 0.016 | [3] 0.028 | [4] 0.024 | [9] -0.01 | [5] -0.169 | [6] 0.098 | [10] 0.076 | [7] -0.058 | [8] -0.102

BZW2 (UniProt Q9Y6E2)
inactive: [1] -0.193 | [3] 0.042 | [4] 0.043 | [5] -0.016 | [6] 0.02 | [7] -0.037
active: [2] -0.367 | [8] -0.298

C1D (UniProt Q13901)
inactive: [1] 0.088 | [2] 0.076 | [3] -0.034 | [4] 0.02 | [5] -0.021 | [6] -0.127 | [8] 0.096

C15orf41 (UniProt Q9Y2V0)
active: [5] -0.333
inactive: [1] -0.04 | [2] -0.188 | [4] -0.165 | [6] -0.022 | [7] 0.019 | [8] 0.001

CA2 (UniProt P00918)
inactive: [1] 0.427 | [2] 0.13 | [3] 0.064 | [9] -0.122 | [6] 0.22 | [10] 0.122 | [7] 0.333

C9orf72 (UniProt Q96LT7)
inactive: [2] -0.089 | [3] 0.062 | [4] -0.008 | [5] 0.226 | [6] 0.075 | [7] -0.094 | [8] 0.209

C2orf76 (UniProt Q3KRA6)
inactive: [1] -0.307 | [9] 0.053 | [6] -0.003 | [10] 0.029 | [7] -0.091

C5orf24 (UniProt Q7Z6I8)
inactive: [2] 0.302 | [3] -0.183 | [4] 0.123 | [5] 0.14 | [6] -0.104 | [7] 0.123 | [8] -0.035

CALML3 (UniProt P27482)
inactive: [1] 0.165 | [2] 0.045 | [4] -0.03 | [7] 1.85

CAPN1 (UniProt E9PLX0)
inactive: [1] -0.068 | [9] -0.127 | [10] 0.294

C16orf87 (UniProt Q6PH81)
inactive: [1] -0.018 | [3] 0.072 | [4] 0.102 | [6] -0.036 | [10] 0.174

C6orf136 isoform 4 (UniProt Q5SQH8)
inactive: [1] 0.014 | [3] -0.254 | [9] -0.06 | [10] -0.083 | [7] -0.004

C9orf85 isoform 1 (UniProt Q96MD7)
inactive: [2] -0.02 | [3] 0 | [4] 0.057 | [9] 0.019 | [6] 0.02 | [7] 0.031

C16orf70 (UniProt Q9BSU1)
inactive: [1] 0.167 | [2] -0.102 | [4] 0.219

C4BPA (UniProt P04003)
inactive: [1] 0.64 | [3] 0.162 | [4] -0.268 | [9] 0.39 | [5] -0.284 | [10] -0.034 | [8] 0.049

C1orf167 isoform 2 (UniProt Q5SNV9)
inactive: [2] 0.01 | [3] 0.015 | [4] -0.085 | [9] 0.029 | [6] -0.259 | [10] 0.075 | [7] 0.215

CAMK1 (UniProt Q14012)
inactive: [1] -0.057 | [10] 0.235

C19orf54 (UniProt Q5BKX5)
inactive: [1] 0.054 | [2] -0.06 | [4] 0.094 | [5] 0.056 | [6] 0.036 | [7] -0.177 | [8] -0.141

BTRC (UniProt Q9Y297)
inactive: [2] -0.076 | [3] -0.016 | [4] 0.148 | [9] -0.007 | [5] -0.027 | [6] 0.029 | [10] -0.043 | [7] -0.063 | [8] 0.048

C11orf74 (UniProt Q86VG3)
inactive: [1] -0.013 | [3] 0.212 | [4] 0.21 | [9] -0.072 | [5] 0.13 | [6] 0.08 | [8] -0.014

C1orf112 (UniProt Q9NSG2)
inactive: [1] -0.103 | [2] -0.211 | [5] -0.094 | [6] -0.018 | [7] -0.166 | [8] -0.002

C22orf39 (UniProt Q6P5X5)
inactive: [2] 0.134 | [3] -0.042 | [4] 0.081 | [7] 0.043

BUD13 (UniProt Q9BRD0)
inactive: [2] 0.187 | [3] -0.044 | [4] -0.251 | [9] -0.024 | [5] 0.089 | [6] -0.18 | [7] 0.17 | [8] 0.016

C5orf30 (UniProt Q96GV9)
inactive: [2] 0.001 | [4] 0.165

BYSL (UniProt Q13895)
inactive: [1] -0.009 | [2] -0.113 | [3] 0.072 | [4] 0.118 | [5] 0.053 | [6] 0.079 | [7] 0.09 | [8] 0.053

C6orf120 (UniProt Q7Z4R8)
inactive: [1] 0.066 | [2] -0.101 | [3] 0.019 | [6] -0.155 | [7] -0.245

CAB39L (UniProt Q9H9S4)
inactive: [1] -0.134 | [2] -0.054 | [4] 0.018 | [5] 0.161 | [6] -0.169 | [7] -0.047 | [8] 0.072

CAPN15 (UniProt O75808)
inactive: [2] -0.005 | [4] -0.103 | [9] 0.009 | [5] -0.007 | [10] 0.053 | [8] 0.178

C8orf88 (UniProt P0DMB2)
inactive: [2] 0.069 | [4] 0.115 | [9] -0.061 | [5] 0 | [6] -0.046 | [10] 0.084 | [8] -0.176

CARD19 isoform 2 (UniProt Q96LW7)
inactive: [1] -0.007 | [4] 0.081 | [5] -0.043 | [6] -0.025 | [10] 0.074 | [7] 0.047 | [8] -0.078

C12orf65 (UniProt Q9H3J6)
inactive: [1] 0.196 | [3] -0.119 | [9] 0.032 | [6] -0.098 | [10] -0.057 | [7] 0.059

C19orf12 (UniProt Q9NSK7)
inactive: [1] -0.137 | [2] -0.062 | [3] 0.048 | [4] 0.013 | [10] 0.071

C3orf38 (UniProt Q5JPI3)
inactive: [1] 0.033 | [2] -0.191 | [3] 0 | [4] -0.125 | [6] 0.065 | [10] 0.085 | [7] -0.005

BTAF1 (UniProt O14981)
inactive: [1] -0.087 | [3] 0.061 | [4] 0.086 | [5] -0.07 | [6] 0.027 | [7] -0.055 | [8] -0.09
active: [2] -0.265

Taken from above (2 entries):
CARD19 isoform 2 (UniProt Q96LW7)
inactive: [1] -0.007 | [4] 0.081 | [5] -0.043 | [6] -0.025 | [10] 0.074 | [7] 0.047 | [8] -0.078

C12orf65 (UniProt Q9H3J6)
inactive: [1] 0.196 | [3] -0.119 | [9] 0.032 | [6] -0.098 | [10] -0.057 | [7] 0.059
